From patent US20180305438A1 (ACCELERON PHARMA, published 2018)
These are yes or no findings as the source states them, for the method shown. Some binding calls cover weakened binding; strength is not graded here.

Sequences of proteins named here, by UniProt entry; tags and fusion partners are left off. Residues count along the entry.
UniProt P22004, residues 382-513: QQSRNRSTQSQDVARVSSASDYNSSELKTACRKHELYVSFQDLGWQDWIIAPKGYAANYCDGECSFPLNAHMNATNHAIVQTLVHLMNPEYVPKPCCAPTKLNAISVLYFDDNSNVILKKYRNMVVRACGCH

Target: hBMP6 (human) (UniProt P22004)
Assay: Biacore (SPR)

- binding: binds
B1: mALK3(24-152)-mFc derived from HEK 293 cells (Fc fusion)
chain: GAQNLDSMLHGTGMKSDLDQKKPENGVTLAPEDTLPFLKCYCSGHCPDDAINNTCITNGHCFAIIEEDDQGETTLTSGCMKYEGSDFQCKDSPKAQLRRTIECCRTNLCNQYLQPTLPPVVIGPFFDGSIRTGGGEPRVPITQNPCPPLKECPPCAAPDLLGGPSVFIFPPKIKDVLMISLSPMVTCVVVDVSEDDPDVQISWFVNNVEVHTAQTQTHREDYNSTLRVVSALPIQHQDWMSGKEFKCKVNNRALPSPIEKTISKPRGPVRAPQVYVLPPPAEEMTKKEFSLTCMITGFLPAEIAVDWTSNGRTEQNYKNTATVLDSDGSYFMYSKLRVQKSTWERGSLFACSVVHEGLHNHLTTKTISRSLGK
notes: The Gly-Ala at 23-24 may also be absent, since the main species of the human construct starts at Gln; also called mALK3-mFc
